Data set [1] deals with Tomato. Briefly: Experiment 5: infusion of various agents, amount infused. Also noted: species or system cherry tomatoes. The conditions noted are these: bath 2% agent, 0.001% Tween 20, 30 kPa for 10 minutes, Ca++, Zn++ by AA Spectroscopy after subtraction of initial levels.
Data set [2] concerns Grape. The description is as above. The following applies: bath 2% agent, 0.001% Tween 20, 30 kPa for 10 minutes, Ca++, Zn++ by AA Spectroscopy after subtraction of initial levels. Also noted: species or system seedless grapes.
For data set [3], the system named is Apple. Briefly: Experiment 2: amount of 3H glutamate infused at various pressures. The conditions noted are these: 15 minute, 2% 3H glutamate bath. Also noted: species or system Gala apples.
In data set [4] the test system is Celery. Described as above. The conditions noted are these: 15 minute, 2% 3H glutamate bath.
Data set [5] has as its system Carrot. The data set is described as above. More on the design: species or system carrots. The following applies: 15 minute, 2% 3H glutamate bath.
In data set [6] the test system is Tomato. The data set is described as above. More on the design: species or system cherry tomatoes. The conditions noted are these: 15 minute, 2% 3H glutamate bath.
In data set [7] the test system is Strawberry. Described as above. More on the design: species or system strawberries. The following applies: 15 minute, 2% 3H glutamate bath.
In data set [8] the test system is Grape. Described as above. More on the design: species or system seedless grapes. The conditions noted are these: 15 minute, 2% 3H glutamate bath.
Data set [9] has as its system Apple. As to the kind of experiment: Experiment 3: amount of glutamate infused with surfactant in the infusion bath. More on the design: species or system Gala apples. The conditions noted are these: 30 kPa for 10 minutes.
In data set [10] the test system is Celery. The description is as above. The conditions noted are these: 30 kPa for 10 minutes.
Data set [11] deals with Carrot. The description is as above. Also noted: species or system carrots. The following applies: 30 kPa for 10 minutes.
The subject of data set [12] is Tomato. The data set is described as above. The conditions noted are these: 30 kPa for 10 minutes. More on the design: species or system cherry tomatoes.
Data set [13] deals with Strawberry. Described as above. More on the design: species or system strawberries. The conditions noted are these: 30 kPa for 10 minutes.
The test system of data set [14] is Apple. Briefly: Experiment 4: amount of glutamate infused at varied agent concentration in the bath. More on the design: species or system Gala apples. The following applies: 30 kPa for 10 minutes.
The subject of data set [15] is Celery. The data set is described as above. The conditions noted are these: 30 kPa for 10 minutes.
The subject of data set [16] is Carrot. Described as above. Also noted: species or system carrots. The conditions noted are these: 30 kPa for 10 minutes.
Data set [17] relates to Tomato. The data set is described as above. The conditions noted are these: 30 kPa for 10 minutes. More on the design: species or system cherry tomatoes.
Data set [18] concerns Strawberry. The description is as above. Also noted: species or system strawberries. The conditions noted are these: 30 kPa for 10 minutes.
For data set [19], the system named is Grape. The description is as above. Also noted: species or system seedless grapes. The conditions noted are these: 30 kPa for 10 minutes.

`COc1ccc(CN(CCN(C)C)c2ccccn2)cc1` [Pyrilamine, pyrilamine]: the “infused agent per gram fresh weight” value is reported as 355 μg per gram fresh weight in the data set with Tomato [1] and 381 μg per gram fresh weight in the data set with Grape [2].

Take `[Ca+2].[Cl-].[Cl-]` [Ca++, Calcium chloride]: the “infused agent per gram fresh weight” value with Tomato [1] stood at 419 μg per gram fresh weight; in the data set with Grape [2], 344 μg per gram fresh weight.

`C[N+]1(C)[C@@H]2C[C@@H](OC(=O)[C@H](CO)c3ccccc3)C[C@H]1[C@@H]1O[C@@H]12` [Methylscopolamine, methylscopolamine]: the entries for the “infused agent per gram fresh weight” value in the data set with Tomato [1] and in the data set on Grape [2] were 289 μg per gram fresh weight and 382 μg per gram fresh weight, respectively.

As for `N[C@@H](CCC(=O)O)C(=O)O` [glutamate], the “infused agent (glutamate) per gram fresh weight material” value is reported as 5 μg per gram fresh weight in the data set on Apple [3] (0 kPa); 110 μg per gram fresh weight in the data set on Apple [3] (10 kPa); 319 μg per gram fresh weight with Apple [3] (20 kPa); 374 μg per gram fresh weight in the data set with Apple [3] (30 kPa); 485 μg per gram fresh weight with Apple [3] (50 kPa); 459 μg per gram fresh weight with Apple [3] (75 kPa). The “infused agent (glutamate) per gram fresh weight material” value stood at 501 μg per gram fresh weight in the data set on Apple [3] (100 kPa); 17 μg per gram fresh weight with Celery [4] (0 kPa); 231 μg per gram fresh weight in the data set on Celery [4] (10 kPa); 525 μg per gram fresh weight with Celery [4] (20 kPa); 613 μg per gram fresh weight with Celery [4] (30 kPa); 719 μg per gram fresh weight in the data set on Celery [4] (50 kPa). Moreover, the “infused agent (glutamate) per gram fresh weight material” value worked out at 733 μg per gram fresh weight in the data set on Celery [4] (75 kPa); 745 μg per gram fresh weight in the data set with Celery [4] (100 kPa); 11 μg per gram fresh weight in the data set on Carrot [5] (0 kPa); 182 μg per gram fresh weight in the data set with Carrot [5] (10 kPa); 332 μg per gram fresh weight with Carrot [5] (20 kPa); 407 μg per gram fresh weight with Carrot [5] (30 kPa). Also, the “infused agent (glutamate) per gram fresh weight material” value with Carrot [5] (50 kPa) is reported as 422 μg per gram fresh weight; in the data set on Carrot [5] (75 kPa), 437 μg per gram fresh weight; with Carrot [5] (100 kPa) it was 458 μg per gram fresh weight; with Tomato [6] (0 kPa), 13 μg per gram fresh weight; with Tomato [6] (10 kPa) it was 198 μg per gram fresh weight; in the data set on Tomato [6] (20 kPa), 388 μg per gram fresh weight. Besides, the “infused agent (glutamate) per gram fresh weight material” value is 531 μg per gram fresh weight in the data set on Tomato [6] (30 kPa); 653 μg per gram fresh weight in the data set on Tomato [6] (50 kPa); 672 μg per gram fresh weight in the data set with Tomato [6] (75 kPa); 641 μg per gram fresh weight in the data set on Tomato [6] (100 kPa); 22 μg per gram fresh weight in the data set on Strawberry [7] (0 kPa); 314 μg per gram fresh weight in the data set on Strawberry [7] (10 kPa). Besides, the “infused agent (glutamate) per gram fresh weight material” value amounted to 553 μg per gram fresh weight in the data set on Strawberry [7] (20 kPa); 682 μg per gram fresh weight with Strawberry [7] (30 kPa); 821 μg per gram fresh weight in the data set on Strawberry [7] (50 kPa); 840 μg per gram fresh weight in the data set on Strawberry [7] (75 kPa); 779 μg per gram fresh weight with Strawberry [7] (100 kPa); 15 μg per gram fresh weight in the data set with Grape [8] (0 kPa). For the same compound, the “infused agent (glutamate) per gram fresh weight material” value with Grape [8] (10 kPa) is given as 247 μg per gram fresh weight; in the data set with Grape [8] (20 kPa), 372 μg per gram fresh weight; in the data set on Grape [8] (30 kPa), 443 μg per gram fresh weight; in the data set on Grape [8] (50 kPa), 466 μg per gram fresh weight; in the data set with Grape [8] (75 kPa) it was 457 μg per gram fresh weight; with Grape [8] (100 kPa), 481 μg per gram fresh weight. The “infused agent (glutamate) per gram fresh weight tissue” value with Apple [9] (0.001% Tween 20 in bath) turned out to be 413 μg per gram fresh weight; in the data set with Apple [9] (0.0015 Silwet in bath), 464 μg per gram fresh weight; with Apple [9] (no surfactant) it was 348 μg per gram fresh weight; with Celery [10] (0.001% Tween 20 in bath), 769 μg per gram fresh weight; in the data set on Celery [10] (0.0015 Silwet in bath), 812 μg per gram fresh weight; in the data set with Celery [10] (no surfactant), 638 μg per gram fresh weight. Besides, the “infused agent (glutamate) per gram fresh weight tissue” value in the data set on Carrot [11] (0.001% Tween 20 in bath) worked out at 491 μg per gram fresh weight; with Carrot [11] (0.0015 Silwet in bath), 526 μg per gram fresh weight; in the data set on Carrot [11] (no surfactant), 389 μg per gram fresh weight; with Tomato [12] (0.001% Tween 20 in bath), 703 μg per gram fresh weight; in the data set on Tomato [12] (0.0015 Silwet in bath) it was 737 μg per gram fresh weight; with Tomato [12] (no surfactant) it was 547 μg per gram fresh weight. Besides, the “infused agent (glutamate) per gram fresh weight tissue” value was determined as 688 μg per gram fresh weight in the data set on Strawberry [13] (0.001% Tween 20 in bath); 721 μg per gram fresh weight with Strawberry [13] (0.0015 Silwet in bath); 658 μg per gram fresh weight with Strawberry [13] (no surfactant); 29 μg per gram fresh weight with Apple [14] (agent @ 0.1% in bath); 171 μg per gram fresh weight in the data set on Apple [14] (agent @ 1% in bath); 318 μg per gram fresh weight in the data set with Apple [14] (agent @ 2% in bath). In addition, the “infused agent (glutamate) per gram fresh weight tissue” value with Apple [14] (agent @ 4% in bath) is listed as 567 μg per gram fresh weight; with Apple [14] (agent @ 10% in bath) it was 1,273 μg per gram fresh weight; in the data set with Celery [15] (agent @ 0.1% in bath), 49 μg per gram fresh weight; with Celery [15] (agent @ 1% in bath), 235 μg per gram fresh weight; in the data set on Celery [15] (agent @ 2% in bath) it was 577 μg per gram fresh weight; in the data set on Celery [15] (agent @ 4% in bath), 723 μg per gram fresh weight. Further, the “infused agent (glutamate) per gram fresh weight tissue” value with Celery [15] (agent @ 10% in bath) is 1,298 μg per gram fresh weight; in the data set with Carrot [16] (agent @ 0.1% in bath), 28 μg per gram fresh weight; in the data set on Carrot [16] (agent @ 1% in bath), 99 μg per gram fresh weight; with Carrot [16] (agent @ 2% in bath), 305 μg per gram fresh weight; in the data set on Carrot [16] (agent @ 4% in bath), 613 μg per gram fresh weight; with Carrot [16] (agent @ 10% in bath) it was 1,361 μg per gram fresh weight. Also, the “infused agent (glutamate) per gram fresh weight tissue” value with Tomato [17] (agent @ 0.1% in bath) was 33 μg per gram fresh weight; in the data set with Tomato [17] (agent @ 1% in bath), 171 μg per gram fresh weight; with Tomato [17] (agent @ 2% in bath), 500 μg per gram fresh weight; in the data set with Tomato [17] (agent @ 4% in bath), 738 μg per gram fresh weight; in the data set on Tomato [17] (agent @ 10% in bath) it was 1,425 μg per gram fresh weight; with Strawberry [18] (agent @ 0.1% in bath) it was 72 μg per gram fresh weight. In addition, the “infused agent (glutamate) per gram fresh weight tissue” value in the data set on Strawberry [18] (agent @ 1% in bath) is recorded as 338 μg per gram fresh weight; in the data set with Strawberry [18] (agent @ 2% in bath), 541 μg per gram fresh weight; in the data set with Strawberry [18] (agent @ 4% in bath), 829 μg per gram fresh weight; with Strawberry [18] (agent @ 10% in bath), 1,589 μg per gram fresh weight; in the data set with Grape [19] (agent @ 0.1% in bath) it was 59 μg per gram fresh weight; in the data set on Grape [19] (agent @ 1% in bath) it was 192 μg per gram fresh weight. In addition, the “infused agent (glutamate) per gram fresh weight tissue” value in the data set on Grape [19] (agent @ 2% in bath) was 410 μg per gram fresh weight; in the data set on Grape [19] (agent @ 4% in bath) it was 722 μg per gram fresh weight; with Grape [19] (agent @ 10% in bath) it was 1,290 μg per gram fresh weight.

Take `C[C@]1(O)CC[C@H]2[C@@H]3CCC4=CC(=O)CCC4=C3C=C[C@@]21C` [Methyltrienolone, methyltrienolone]: the “infused agent per gram fresh weight” value stood at 400 μg per gram fresh weight in the data set with Tomato [1] and 299 μg per gram fresh weight in the data set with Grape [2].

With `[Cl-].[Cl-].[Zn+2]` [Zn++, zinc chloride], the “infused agent per gram fresh weight” value in the data set on Tomato [1] worked out at 384 μg per gram fresh weight; in the data set with Grape [2], 415 μg per gram fresh weight.

Source of the values: patent US6660310B2, “Method to infuse fresh fruits and vegetables with an agent” (American Moxie LLC, priority 2000, dated 2003).
